# PubChem BioAssay AID1259254 – NCATS, 2017
# Purpose: 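Finding genes that stop cells copying their DNA twice in one cycle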 (primary screen)
# Cell system: human HCT116 colorectal cancer cells
# Knock-down reagent: single siRNA against human genes
# Timing: 3 days
# Measurement: 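Nuclei stained with Hoechst and imaged; cell-cycle phase assigned by DNA content; G2 share scaled per plate, non-targeting siRNA 0%, GMNN siRNA 100%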
# Scale: G2 robust z-score and G2 cells, % of GMNN control: higher = more G2 cells, more excess DNA replication; raw share of cells in G2: higher = larger share of cells with G2 DNA content
# Active means: 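Active siRNAs have a G2 robust z of 5 or more median absolute deviations over the median, which in these data means about 38% or higher of GMNN control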
# The deposit covers about 59,000 reagents; shown is an unselected part. Over the whole deposit, about 1,550 (2.6%) are marked active. 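G2 share is only a proxy for re-replication; each gene was hit by three separate siRNAs, and active genes were retested.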 Raw values are not corrected between plates. A number with no mark means an inactive call. Reagents against one gene are numbered here. Not given: the amount of reagent.
gene knocked down,siRNA no.,G2 robust z-score,"G2 cells, % of GMNN control",raw share of cells in G2 (%)
SNRPF (small nuclear ribonucleoprotein polypeptide F),1,0.75,8.24,6.69
SNRPF (small nuclear ribonucleoprotein polypeptide F),2,2.53,20.7,12.7
SNRPF (small nuclear ribonucleoprotein polypeptide F),3,1.59,14.1,9.39
OR9G1 (olfactory receptor family 9 subfamily G member 1),1,4.41,34,15.4
OR9G1 (olfactory receptor family 9 subfamily G member 1),2,-0.845,-2.98,2.11
OR9G1 (olfactory receptor family 9 subfamily G member 1),3,3.96,30.8,17.9
TRERF1 (transcriptional regulating factor 1),1,-1.16,-5.23,2.15
TRERF1 (transcriptional regulating factor 1),2,0.399,5.77,8.96
TRERF1 (transcriptional regulating factor 1),3,0.812,8.68,7.55
RPTN (repetin),1,0.392,5.73,6.33
RPTN (repetin),2,-0.342,0.561,3.28
RPTN (repetin),3,-0.897,-3.34,1.37
PHF21A (PHD finger protein 21A),1,-1.3,-6.17,1.97
PHF21A (PHD finger protein 21A),2,-1.08,-4.64,2.02
PHF21A (PHD finger protein 21A),3,2.42,20,15
RPSAP20 (ribosomal protein SA pseudogene 20),1,0.14,3.95,4.01
RPSAP20 (ribosomal protein SA pseudogene 20),2,0.38,5.64,6.3
RPSAP20 (ribosomal protein SA pseudogene 20),3,2.04,17.3,8.6
ARHGEF2 (Rho/Rac guanine nucleotide exchange factor 2),1,7.63 (active),56.7,25
ARHGEF2 (Rho/Rac guanine nucleotide exchange factor 2),2,-0.333,0.623,5.48
ARHGEF2 (Rho/Rac guanine nucleotide exchange factor 2),3,-0.713,-2.05,3.61
CMIP (c-Maf inducing protein),1,-0.118,2.14,5.33
CMIP (c-Maf inducing protein),2,0.848,8.94,8.21
CMIP (c-Maf inducing protein),3,-0.557,-0.951,2.12
CENPH (centromere protein H),1,0.763,8.34,8.21
CENPH (centromere protein H),2,0.29,5.01,6.85
CENPH (centromere protein H),3,0.332,5.3,4.1
MACROH2A1 (macroH2A.1 histone),1,-0.493,-0.499,5.1
MACROH2A1 (macroH2A.1 histone),2,-0.357,0.458,4.13
MACROH2A1 (macroH2A.1 histone),3,0.159,4.09,4.89
CENPP (centromere protein P),1,-0.735,-2.2,3.01
CENPP (centromere protein P),2,0.0584,3.38,4.86
CENPP (centromere protein P),3,-0.41,0.0851,4.83
DNAJC28 (DnaJ heat shock protein family (Hsp40) member C28),1,0.286,4.98,5.38
DNAJC28 (DnaJ heat shock protein family (Hsp40) member C28),2,0.139,3.95,5.93
DNAJC28 (DnaJ heat shock protein family (Hsp40) member C28),3,-0.969,-3.85,1.92

Continued, starting with the last 2 of the part before.
gene knocked down,siRNA no.,G2 robust z-score,"G2 cells, % of GMNN control",raw share of cells in G2 (%)
DNAJC28 (DnaJ heat shock protein family (Hsp40) member C28),2,0.139,3.95,5.93
DNAJC28 (DnaJ heat shock protein family (Hsp40) member C28),3,-0.969,-3.85,1.92
DOP1B (DOP1 leucine zipper like protein B),1,-0.226,1.37,5.95
DOP1B (DOP1 leucine zipper like protein B),2,1.02,10.1,8.17
DOP1B (DOP1 leucine zipper like protein B),3,-0.351,0.5,3.59
KRT23 (keratin 23),1,0.973,9.81,7.45
KRT23 (keratin 23),2,-0.917,-3.48,2.85
KRT23 (keratin 23),3,-0.663,-1.7,5.39
RPS12P9 (ribosomal protein S12 pseudogene 9),1,-0.517,-0.673,3.29
RPS12P9 (ribosomal protein S12 pseudogene 9),2,0.669,7.67,5.58
RPS12P9 (ribosomal protein S12 pseudogene 9),3,0.602,7.2,6.33
ACRBP (acrosin binding protein),1,0.0741,3.49,5.27
ACRBP (acrosin binding protein),2,-1.32,-6.32,1.58
ACRBP (acrosin binding protein),3,1.94,16.6,7.45
ACY3 (aminoacylase 3),1,6.94 (active),51.8,27.5
ACY3 (aminoacylase 3),2,2.27,19,10.7
ACY3 (aminoacylase 3),3,-0.986,-3.97,2.78
KREMEN1 (kringle containing transmembrane protein 1),1,-0.386,0.25,5.53
KREMEN1 (kringle containing transmembrane protein 1),2,-0.598,-1.24,3.74
KREMEN1 (kringle containing transmembrane protein 1),3,2.66,21.7,12.8
USP39 (ubiquitin specific peptidase 39),1,-0.828,-2.86,4.56
USP39 (ubiquitin specific peptidase 39),2,1.79,15.6,10.4
USP39 (ubiquitin specific peptidase 39),3,-0.265,1.1,4.32
SLC16A8,1,-1.01,-4.17,2.44
SLC16A8,2,2.31,19.2,14.1
SLC16A8,3,0.413,5.87,6.12
CDX4 (caudal type homeobox 4),1,0.441,6.07,7.13
CDX4 (caudal type homeobox 4),2,0.21,4.44,6.62
CDX4 (caudal type homeobox 4),3,-0.349,0.515,4.27
AMELX (amelogenin X-linked),1,1.04,10.3,10.1
AMELX (amelogenin X-linked),2,-0.462,-0.281,3.98
AMELX (amelogenin X-linked),3,4.38,33.8,16.8
SNX33 (sorting nexin 33),1,2.2,18.4,9.44
SNX33 (sorting nexin 33),2,1.16,11.1,7.03
SNX33 (sorting nexin 33),3,-0.22,1.42,4.02
